Reference: PMC4734682, “Evidence for the Nucleo-Apical Shuttling of a Beta-Catenin Like Plasmodium falciparum Armadillo Repeat Containing Protein” (PLoS ONE, 2016)
These are yes or no findings as the source states them, for the method shown. Where a sequence is shown, tags or fusion partners need not be part of it.

Molecular target: Recombinant PfARO (P. falciparum Armadillo Repeats Only protein), full length, C-terminal 6-His tag (P. falciparum (strain 3D7)) (UniProt C0H4A5)
Experiment: reducing SDS-PAGE; purified rPfARO run under reducing conditions; both purified

B1: Recombinant PfARO (P. falciparum Armadillo Repeats Only protein), full length, C-terminal 6-His tag (natural protein, P. falciparum (strain 3D7), UniProt C0H4A5 1-275, looked up)
chain: MGNNCCAGRDLLYKNKLQEFGIEGSKTIRKLLSFTSNDILRFDKAYDENDVQEFVNLCSSTCEIEKLEDRMHPWAADPKTIGALSATQLAILASKENEPHYKDAIREANGIAVFINLLKSHELDRVHAAVVALSFLSVDNVKNCICMFESGALPYLISGMKSNIDGMKAACAQTCRNIFVLDKKYKKEFLKLGGITQLVNLLELPSNYDDSQPLYTQLEAIYHLEDFILNDGDEIPEFLEAVKNSNSIKNLKTLQQCPEQDLAEASNVLLLRLTD
notes: PfARO, Plasmodium falciparum strain 3D7, PlasmoDB PF3D7_0414900; full length open reading frame of 275 amino acids amplified from 3D7 cDNA; putative NES at residues 198-204 (LVNLLEL); nine cysteines; Cloned NdeI/XhoI into pET-24b; also called rPfARO; ARM Repeats Only; source: E. coli BL21 (DE3) Codon+, purified (Ni-NTA, size exclusion chromatography on Superdex-200); not shown: His6, C-terminal, …
binding: no binding (condition: under reducing conditions)
